# Experimental data published in PubChem BioAssay AID504467 (National Center for Advancing Translational Sciences (NCATS), 2011).
# The campaign covered roughly 330,000 compounds. About 7,700 (2.3%) were called active. Inconclusive means that the source gave no clear call. Such entries were picked first, then a sample of the others. Calls follow the shape of the dose curve; as a rule, active = well fitted inhibition curve with a large enough effect; inconclusive = small, poorly fitted or top-dose-only effect, or effect the other way; inactive = flat fitted curve, though single readings scatter. Potencies beside an inconclusive call are fits to weak or partial responses and may not hold up.
# Test: qHTS screen for small molecules that inhibit ELG1-dependent DNA repair in human embryonic kidney (HEK293T) cells expressing luciferase-tagged ELG1; also: nearly all actives have a fitted effect of over 55% in size
# Details: HEK293T ELG1-luciferase reporter, luminescence, 16 h, DNA damage induced by 5-fluorouridine; activity change, negative = inhibition: at 46.1 µM (top of the series)
# In short: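 In this reporter screen, reduction of luminescence relative to DMSO vehicle indicated activity. Compounds and 5-fluorouridine were added together to 2,000 cells per well, incubated for 16 hr at 37 °C, then developed with ONE-Glo.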
# % is scaled to controls: 0 for no effect and ±100 for the full control effect; potency is read from the fitted curve at half-maximal effect.
Compound,Potency,"activity change, negative = inhibition"
O=C1/C(=C\c2cccnc2)Sc2ccccc21,"inconclusive: 23.1 µM [activator, partial curve]",–
CN1CCN(c2ccc(NC(=O)c3ccc4ccccc4c3)cc2)CC1,"inconclusive: 2.31 µM [activator, partial curve]",–
S=c1[nH]nc(-c2ccc3ccccc3n2)n1-c1cc(Cl)cc(Cl)c1,–,inactive: -1.87%
COc1ccc(NC(=O)CN(c2ccc(C)cc2)S(=O)(=O)c2c(C)nn(C)c2C)cc1OC,–,inactive: -25.5%
Cc1noc(/C=C/N(C)C)c1S(=O)(=O)N1CCC(C(=O)NC(C)(C)C)CC1,–,inactive: 9.46%
CCOC(=O)C1=C(Cc2ccc(C)cc2)C(=O)c2ccccc2C1=O,"inconclusive: 1.84 µM [inhibitor, partial curve, poor fit]",–
CCOC(=O)c1nc(S(C)(=O)=O)ncc1N1CCOCC1,–,inactive: -10.1%
Cc1ccc(S(=O)(=O)N2CCCCC2CCNC(=O)C(=O)NCC2CCCO2)cc1 (stereo not drawn),–,inactive: 4.07%
COc1ccc(-c2noc(CCC(=O)NC3CCCCCC3)n2)cc1,–,inactive: -0.182%
CCOc1ccc2nc(NC(=O)c3cc([N+](=O)[O-])ccc3N3CCOCC3)sc2c1,"inconclusive: 13 µM [inhibitor, partial curve]",–
O=C(c1cccc(S(=O)(=O)N2CCCC2)c1)c1cccc(S(=O)(=O)N2CCCC2)c1,active: 5.8 µM,–
O=C(Cc1ccc(F)cc1)N1CCN=C1SCc1ccc([N+](=O)[O-])cc1,"inconclusive: 20.6 µM [inhibitor, partial curve, poor fit]",–
C=CCOC(=O)C1=C(C)NC(SC)=C(C#N)C1c1ccc(OCC)cc1 (stereo not drawn),–,inactive: -27.6%
S=C(NCc1ccccc1)NCc1ccccc1,–,inactive: 0%
Cc1cc(C)cc(C(=O)Nc2ccc(N3CCN(C(=O)c4ccco4)CC3)cc2)c1,active: 20.6 µM,–
CCCOc1ccc(NC(=O)CC2C(=O)N(CC)C(=S)N2Cc2cccs2)cc1 (stereo not drawn),–,inactive: -8.28%
CCOC(=O)N1CCN(CC(O)COCc2cc(OC)c(OC)c(OC)c2)CC1 (stereo not drawn),–,inactive: 27.1%
CN(C)c1cccc(C(=O)N2CCCC(CCC(=O)N3CCN(c4ccccn4)CC3)C2)c1 (stereo not drawn),–,inactive: -15.9%
CNC(=S)SCCOc1ccccc1,"inconclusive: 16.4 µM [activator, partial curve, poor fit]",–
COC(=O)/C=C1\NCCNC1=O,–,inactive: 1.78%
N#CC(=C1CCCC1)c1nc(-c2cc3ccccc3oc2=O)cs1,"inconclusive: 2.59 µM [activator, full curve]",–
Cc1csc(NC(=O)CSc2nc3[nH]ncc3c(=O)[nH]2)n1,–,inactive: 6.61%
CCc1c(C(=O)NN2C(=O)C3CCCCC3C2=O)csc1C (stereo not drawn),–,inactive: 16.1%
Clc1ccc(CN=C2Nc3ccccc3CS2)cc1,"inconclusive: 11.6 µM [activator, partial curve]",–

Compound,Potency,"activity change, negative = inhibition"
Cn1c(CCN2CCN(c3ccccc3)CC2)nc2cc(NC(=O)c3ccco3)ccc21,–,inactive: -21.3%
O=[N+]([O-])c1c(NCCCO)cc(Sc2ccc(Cl)cc2)c2nonc12,–,inactive: 1.82%
Oc1sc(C=Nc2ccc(F)cc2)c2ccccc12,"inconclusive: 18.4 µM [activator, partial curve]",–
CCCNC(=O)c1nnsc1S(=O)(=O)c1ccc(Cl)cc1,"inconclusive: 29.1 µM [activator, single point]",–
Cn1c(SCc2cccc([N+](=O)[O-])c2)nc2c(c1=O)SCC2,"inconclusive: 18.3 µM [inhibitor, single point]",–
COc1cc2nc(=S)n3[nH]c(COc4ccccc4C)nc3c2cc1OC,"inconclusive: 16.4 µM [inhibitor, partial curve, poor fit]",–
CC(=O)Nc1ccc(NC(=O)CSc2nccn2Cc2ccc(Cl)cc2)cc1,"inconclusive: 29.1 µM [inhibitor, partial curve, poor fit]",–
COc1ccc(Cl)cc1NC(=O)COC(=O)C1CCCCC1,–,inactive: -7.49%
Cc1cc[n+](-c2[nH]c(=O)sc2/C=N/N=C(\[O-])c2ccccc2)cc1C,–,inactive: -7.47%
O=C(O)c1cc(O)c2c(c1)C(=O)c1cc(O)cc(O)c1C2=O,–,inactive: 1.46%
CC(=O)Nc1ccc(C(=O)N/N=C(\C)CC(=O)Nc2ccc(OCc3ccccc3)cc2)cc1,"inconclusive: 18.4 µM [activator, partial curve]",–
CCOc1ccc(-c2nnc(SCC(=O)N3CCOCC3)o2)cc1,"inconclusive: 10 µM [activator, partial curve]",–
Cc1ccc(-n2ncc(C(=O)N3CCN(C(=O)c4ccco4)CC3)c2-n2cccc2)cc1,"inconclusive: 20.6 µM [inhibitor, partial curve, poor fit]",–
CC(C)C[C@H](NC(=O)N1CCn2c1nc1ccccc12)C(=O)NCC1CCCO1 (stereo partly drawn),"inconclusive: 18.3 µM [activator, partial curve, poor fit]",–
COC(=O)[C@H](Cc1ccccc1)NC(=O)N1CCC(C)CC1,"inconclusive: 16.4 µM [activator, single point]",–
COC(=O)c1cccc(NC(=S)N2CCN(c3ccccc3F)CC2)c1,–,inactive: 8.28%
CCN(C(=O)COC(=O)/C(C#N)=C/c1ccc(OC)cc1)C1CCS(=O)(=O)C1 (stereo not drawn),"inconclusive: 25.9 µM [activator, single point]",–
Cn1ccnc1SCc1cn2cc(Br)ccc2n1,"inconclusive: 0.58 µM [activator, full curve]",–
O=C(c1ccco1)N1CCc2[nH]nc(-c3ccc(Cl)cc3)c2C1,"inconclusive: 23.1 µM [inhibitor, single point]",–
C/C(N)=C(/C#N)C(=O)COC(=O)c1cccc(O)c1,"inconclusive: 29.1 µM [activator, single point]",–
O=C(O)C1OC(Oc2cc3oc(-c4ccccc4)cc(=O)c3c(O)c2O)C(O)C(O)C1O (stereo not drawn),"inconclusive: 25.9 µM [activator, single point]",–
CCn1nc(C(=O)NNC(=O)c2ccccc2)c2ccccc2c1=O,"inconclusive: 29.1 µM [activator, single point]",–
COc1ccc(NC(=O)CNC(=O)C2CCCCC2)cc1OC,"inconclusive: 10.3 µM [activator, partial curve, poor fit]",–
O=C(CCCN1CCC(O)(c2ccc(Cl)cc2)CC1)c1ccc(F)cc1,"inconclusive: 25.9 µM [inhibitor, partial curve, poor fit]",–

# Full records, quoted from the list:
# CCOc1ccc(-c2nnc(SCC(=O)N3CCOCC3)o2)cc1 is entered as Potency: inconclusive: 10 µM [activator, partial curve]
# O=C(c1ccco1)N1CCc2[nH]nc(-c3ccc(Cl)cc3)c2C1 is entered as Potency: inconclusive: 23.1 µM [inhibitor, single point]
# CCCOc1ccc(NC(=O)CC2C(=O)N(CC)C(=S)N2Cc2cccs2)cc1 (stereo not drawn) is entered as activity change, negative = inhibition: inactive: -8.28%
# CCn1nc(C(=O)NNC(=O)c2ccccc2)c2ccccc2c1=O is entered as Potency: inconclusive: 29.1 µM [activator, single point]
